Measured values taken from patent publication US20190234942A1.
No constants are given. Whether binding was seen depends on the method and setting. For some of these results: In cells and extracts the contact can be indirect. Some entries that bind do so weakly or less than the wild type.

Protein sequences, listed by entry. Tags and fused reporters are not part of them. Lines headed by an entry give the natural chain unless they say otherwise; changes in a name come on top.
UniProt Q9Y664: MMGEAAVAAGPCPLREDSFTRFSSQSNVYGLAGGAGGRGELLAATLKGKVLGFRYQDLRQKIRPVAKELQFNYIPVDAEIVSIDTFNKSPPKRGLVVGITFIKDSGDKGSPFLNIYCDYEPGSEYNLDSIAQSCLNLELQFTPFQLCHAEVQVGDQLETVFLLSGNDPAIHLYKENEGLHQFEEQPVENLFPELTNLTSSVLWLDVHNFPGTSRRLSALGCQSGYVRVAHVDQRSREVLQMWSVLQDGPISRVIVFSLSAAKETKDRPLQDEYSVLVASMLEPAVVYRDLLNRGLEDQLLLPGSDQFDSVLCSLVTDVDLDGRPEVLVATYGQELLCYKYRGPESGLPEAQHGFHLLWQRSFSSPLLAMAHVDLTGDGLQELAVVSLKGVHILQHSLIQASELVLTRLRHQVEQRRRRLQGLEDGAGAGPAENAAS
UniProt O75140: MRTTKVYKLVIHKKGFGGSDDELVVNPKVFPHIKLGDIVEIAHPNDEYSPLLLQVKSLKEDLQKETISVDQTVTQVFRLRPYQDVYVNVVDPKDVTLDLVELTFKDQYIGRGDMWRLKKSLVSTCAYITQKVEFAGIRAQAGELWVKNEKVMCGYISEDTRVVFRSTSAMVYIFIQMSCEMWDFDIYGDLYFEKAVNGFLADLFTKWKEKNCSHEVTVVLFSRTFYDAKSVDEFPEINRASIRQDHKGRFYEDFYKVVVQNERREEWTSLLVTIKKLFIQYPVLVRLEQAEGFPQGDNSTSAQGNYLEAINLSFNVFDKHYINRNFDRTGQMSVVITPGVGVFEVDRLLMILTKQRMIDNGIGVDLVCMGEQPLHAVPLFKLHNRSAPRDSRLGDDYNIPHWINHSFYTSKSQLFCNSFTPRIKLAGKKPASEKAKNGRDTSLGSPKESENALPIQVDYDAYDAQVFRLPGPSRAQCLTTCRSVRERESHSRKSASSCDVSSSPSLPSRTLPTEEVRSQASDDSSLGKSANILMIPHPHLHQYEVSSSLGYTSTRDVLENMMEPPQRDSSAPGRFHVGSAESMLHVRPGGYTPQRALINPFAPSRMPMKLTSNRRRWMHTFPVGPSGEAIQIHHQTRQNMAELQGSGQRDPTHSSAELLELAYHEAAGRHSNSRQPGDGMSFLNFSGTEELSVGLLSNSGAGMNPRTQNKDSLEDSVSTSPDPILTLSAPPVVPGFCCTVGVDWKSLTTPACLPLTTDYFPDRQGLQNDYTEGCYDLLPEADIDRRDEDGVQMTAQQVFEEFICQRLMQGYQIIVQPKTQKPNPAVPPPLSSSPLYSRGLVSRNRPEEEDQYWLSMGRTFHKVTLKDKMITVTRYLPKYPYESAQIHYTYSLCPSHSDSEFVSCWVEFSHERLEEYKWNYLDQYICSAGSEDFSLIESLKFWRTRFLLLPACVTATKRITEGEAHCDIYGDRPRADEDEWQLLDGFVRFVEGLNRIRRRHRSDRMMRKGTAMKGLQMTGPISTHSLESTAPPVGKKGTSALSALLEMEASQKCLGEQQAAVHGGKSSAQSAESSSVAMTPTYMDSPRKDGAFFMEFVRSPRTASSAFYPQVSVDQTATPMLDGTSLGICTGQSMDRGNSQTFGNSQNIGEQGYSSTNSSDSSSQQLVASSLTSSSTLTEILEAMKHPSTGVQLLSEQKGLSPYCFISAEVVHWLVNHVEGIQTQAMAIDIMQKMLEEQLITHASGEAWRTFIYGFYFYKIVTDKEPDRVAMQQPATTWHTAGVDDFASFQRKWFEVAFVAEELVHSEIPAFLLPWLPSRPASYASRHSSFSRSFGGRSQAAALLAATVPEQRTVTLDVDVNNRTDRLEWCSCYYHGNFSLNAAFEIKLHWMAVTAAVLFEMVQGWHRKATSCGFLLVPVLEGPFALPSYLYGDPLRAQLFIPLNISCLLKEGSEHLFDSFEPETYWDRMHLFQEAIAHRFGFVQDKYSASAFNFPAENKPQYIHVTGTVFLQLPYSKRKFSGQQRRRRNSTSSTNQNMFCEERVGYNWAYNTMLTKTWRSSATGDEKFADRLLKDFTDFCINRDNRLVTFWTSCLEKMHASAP

Assays:
[1] = target: KICSTOR complex (Kaptin, ITFG2, C12orf66, SZT2) (UniProt Q9Y664); assay: reciprocal co-immunoprecipitation: anti-FLAG IP of transfected FLAG-Depdc5 blotted for SZT2, and of FLAG-Kaptin blotted for Nprl3, wild-type HEK-293T
[2] = target: KICSTOR complex (Kaptin, ITFG2, C12orf66, SZT2) (UniProt Q9Y664); assay: anti-FLAG IP of endogenous FLAG-Depdc5 from HEK-293T, compounds added to the immunoprecipitate, immunoblot for SZT2
[3] = target: KICSTOR complex (Kaptin, ITFG2, C12orf66, SZT2) (UniProt Q9Y664); assay: anti-FLAG IP of endogenous FLAG-Depdc5 from HEK-293T, SAM or SAH added to the immunoprecipitate, immunoblot for SZT2
[4] = target: KICSTOR complex (Kaptin, ITFG2, C12orf66, SZT2) (UniProt Q9Y664); assay: reciprocal co-immunoprecipitation: anti-FLAG IP of endogenous FLAG-Depdc5 blotted for SZT2, and of FLAG-Kaptin blotted for Nprl3, HEK-293T

binding [1]: binds | binding [2]: binds | binding [3]: binds | binding [4]: binds
Substance: GATOR1 complex (Depdc5, Npr13, Npr12) (from UniProt O75140 1-1603; Q12980 1-569; Q8WTW4 1-380)
